The values that follow come from US20100218416A1, “HYDROXYMETHYLFURFURAL ETHERS FROM SUGARS OR HMF AND BRANCHED ALCOHOLS” (FURANIX TECHNOLOGIES B.V., priority 2007, published 2010).

The data set in a line: Cetane number of blend with additive free diesel fuel (ASTM D 6890). In kind it is physicochemical. The settings on record: 0.1 vol % blend with additive free diesel fuel. The method, then: Oxygenated fuel additives may reduce the natural cetane number of the base diesel fuel. A 0.1 vol % blend of tBMF with additive free diesel fuel was prepared at an outside laboratory for cetane determination according to an ASTM D 6890 certified method.

Molecules are shown by their SMILES.

On to `CC(C)(C)OCc1ccc(C=O)o1` [tBMF, 5-(tert-Butoxymethyl)furfural], for which the “increase of cetane number versus reference additive-free diesel” value amounted to 0.5. The compound further showed an average cetane number (reference diesel 52.5) of 53.0.
